Experimental data: PubChem BioAssay AID1259405 (NCATS, 2018)
Screen: 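Mouse-designed siRNAs used to find CHO productivity engineering targets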 (primary screen). Cell system: Chinese hamster CHO-K1 ovary cells with stable secreted eGFP expression. Knock-down reagent: single siRNA against mouse genes, 0.8 pmol siRNA per well (2 µl of 400 nM stock). Timing: 3 days. Read-out: 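Percent of the per-plate non-targeting control median for intracellular GFP per well by laser scanning cytometry and for cell viability by ATP luminescence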. Scale: GFP, % of control: higher = more GFP per well, higher productivity; viability (ATP), % of control: higher = more viable cells (more ATP). Hit rule: 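a knock-down is called active if GFP reaches 120% or more of non-targeting control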.
Here is a random part of about 50,000 deposited reagents. Over the whole deposit, about 4,000 (8%) were called active. 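Mouse siRNA library applied to hamster cells; one well for each siRNA.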 The numbers tell different reagents against one gene apart.

target	reagent no.	GFP, % of control	viability (ATP), % of control	activity call
Cyp8b1 (GeneID 13124)	1	60.9	53.5	inactive
Cyp8b1 (GeneID 13124)	2	71.3	79.1	inactive
Cyp8b1 (GeneID 13124)	3	86.1	66	inactive
Matn3 (GeneID 17182)	1	86.2	133	inactive
Matn3 (GeneID 17182)	2	129	85	active
Zfp182 (GeneID 319535)	1	67.3	70.9	inactive
Zfp182 (GeneID 319535)	2	38.2	29	inactive
Zfp182 (GeneID 319535)	3	84.4	80.2	inactive
Upk1a (GeneID 109637)	1	10.9	9.76	inactive
Upk1a (GeneID 109637)	2	139	70.7	active
Upk1a (GeneID 109637)	3	108	95.3	inactive
Vbp1 (GeneID 22327)	1	75.9	101	inactive
Vbp1 (GeneID 22327)	2	156	115	active
Tmem184c (GeneID 234463)	1	70.3	85.2	inactive
Tmem184c (GeneID 234463)	2	89.6	106	inactive
Tmem184c (GeneID 234463)	3	69.5	90.6	inactive
Carns1 (GeneID 107239)	1	55.7	67.9	inactive
Carns1 (GeneID 107239)	2	67.3	105	inactive
Carns1 (GeneID 107239)	3	66	56.2	inactive
Hmgb2 (GeneID 97165)	1	78	85.3	inactive
Hmgb2 (GeneID 97165)	2	58.8	66.1	inactive
Hmgb2 (GeneID 97165)	3	57.7	109	inactive
Tdo2 (GeneID 56720)	1	98.3	100	inactive
Tdo2 (GeneID 56720)	2	63	48.6	inactive
Tdo2 (GeneID 56720)	3	45.3	105	inactive
Nelfcd (GeneID 57314)	1	86.8	91	inactive
Nelfcd (GeneID 57314)	2	97.6	100	inactive
Nelfcd (GeneID 57314)	3	128	146	active
Bcs1l (GeneID 66821)	1	137	78.2	active
Bcs1l (GeneID 66821)	2	76.4	80.3	inactive
Bcs1l (GeneID 66821)	3	87.9	104	inactive
Gucy1b1 (GeneID 54195)	1	96.7	109	inactive
Gucy1b1 (GeneID 54195)	2	80.7	54.7	inactive
Gucy1b1 (GeneID 54195)	3	75.3	40.1	inactive

3 entries from above, arranged by “GFP, % of control”, ascending:
target	reagent no.	GFP, % of control	viability (ATP), % of control	activity call
Cyp8b1 (GeneID 13124)	2	71.3	79.1	inactive
Cyp8b1 (GeneID 13124)	3	86.1	66	inactive
Matn3 (GeneID 17182)	1	86.2	133	inactive
